The source of these data is PMC5459575.

Amino acid sequences for entries named in this document (tags omitted). Residues count along the entry.
UniProt Q96D31: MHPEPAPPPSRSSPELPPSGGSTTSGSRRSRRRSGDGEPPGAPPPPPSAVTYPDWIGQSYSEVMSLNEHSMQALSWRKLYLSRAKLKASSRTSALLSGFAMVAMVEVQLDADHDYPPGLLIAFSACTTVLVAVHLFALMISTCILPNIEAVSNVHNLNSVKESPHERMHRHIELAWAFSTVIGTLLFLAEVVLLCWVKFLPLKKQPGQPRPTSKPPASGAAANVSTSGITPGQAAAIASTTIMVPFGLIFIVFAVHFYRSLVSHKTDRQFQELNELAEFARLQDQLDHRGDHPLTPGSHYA
UniProt Q13586, residues 23-685: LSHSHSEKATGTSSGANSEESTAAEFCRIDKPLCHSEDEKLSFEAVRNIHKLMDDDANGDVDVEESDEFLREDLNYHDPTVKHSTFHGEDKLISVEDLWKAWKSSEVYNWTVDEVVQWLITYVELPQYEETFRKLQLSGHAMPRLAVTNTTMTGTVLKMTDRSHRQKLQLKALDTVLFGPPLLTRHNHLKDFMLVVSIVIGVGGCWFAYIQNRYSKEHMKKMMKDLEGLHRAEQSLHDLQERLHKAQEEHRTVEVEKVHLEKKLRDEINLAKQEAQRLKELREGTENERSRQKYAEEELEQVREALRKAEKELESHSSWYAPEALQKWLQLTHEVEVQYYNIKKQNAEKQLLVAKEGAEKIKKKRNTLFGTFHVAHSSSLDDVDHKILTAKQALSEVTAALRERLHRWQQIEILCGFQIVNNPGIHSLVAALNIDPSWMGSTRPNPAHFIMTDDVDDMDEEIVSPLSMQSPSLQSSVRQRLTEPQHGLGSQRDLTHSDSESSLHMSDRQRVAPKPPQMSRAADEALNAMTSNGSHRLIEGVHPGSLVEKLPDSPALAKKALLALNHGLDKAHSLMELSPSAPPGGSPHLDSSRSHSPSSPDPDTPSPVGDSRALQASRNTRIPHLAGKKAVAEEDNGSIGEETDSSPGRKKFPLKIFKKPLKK

Results are given in words; binding and its absence hold for the method and conditions named. Some entries that bind do so weakly or less than the wild type.

Experiment [1] has as its target myc-tagged Orai1 (UniProt Q96D31). Nature of the experiment: pull-down; myc-tagged Orai1 and Stim1 immunoprecipitated from HEK293 cells, beads incubated with purified recombinant α-SNAP WT or M105I for 1 hr at 4°C, washed three times, eluted in SDS sample buffer, western blot; both purified. In general terms: In western blotting, separated proteins are transferred to a membrane and probed.

Experiment [2] deals with myc-tagged Stim1 (UniProt Q13586). The experiment is described as above.

B1: α-SNAP M105I, purified recombinant (protein, UniProt Q9DB05 1-295)
chain: MDNSGKQAEAMALLAEAERKVKNSQSFFSGLFGGSSKIEEACEIYARAANMFKMAKNWSAAGNAFCQAAQLHLQLQSKHDAATCFVDAGNAFKKADPQEAINCLIRAIEIYTDMGRFTIAAKHHISIAEIYETELVDVEKAIAHYEQSADYYKGEESNSSANKCLLKVAGYAAQLEQYQKAIDIYEQVGTSAMDSPLLKYSAKDYFFKAALCHFCIDMLNAKLAVQKYEELFPAFSDSRECKLMKKLLEAHEEQNVDSYTEAVKEYDSISRLDQWLTTMLLRIKKTIQGDEEDLR
In the case of B1, the binding entry in experiment [1] and in experiment [2] was “binds” each time.

B2: α-soluble NSF-attachment protein (α-SNAP), wild type, purified recombinant (protein, UniProt Q9DB05 1-295)
chain: MDNSGKQAEAMALLAEAERKVKNSQSFFSGLFGGSSKIEEACEIYARAANMFKMAKNWSAAGNAFCQAAQLHLQLQSKHDAATCFVDAGNAFKKADPQEAINCLMRAIEIYTDMGRFTIAAKHHISIAEIYETELVDVEKAIAHYEQSADYYKGEESNSSANKCLLKVAGYAAQLEQYQKAIDIYEQVGTSAMDSPLLKYSAKDYFFKAALCHFCIDMLNAKLAVQKYEELFPAFSDSRECKLMKKLLEAHEEQNVDSYTEAVKEYDSISRLDQWLTTMLLRIKKTIQGDEEDLR
On to B2, for which the binding result in experiment [1] and in experiment [2] was “binds” each time.
